{"source": "patent EP0658568A1", "about": "“Glucagon-like insulinotropic peptides, compositions and methods” (ELI LILLY AND COMPANY, priority 1993, dated 1995)", "key": {"[1]": {"test": "Zinc complexation and precipitation of GLP-1 (7-36)amide: absorbance and zinc content of supernatant and redissolved precipitate (Example 2)", "format": "physicochemical", "conditions": "for Zinc Concentration in Parts per Million: atomic absorption spectrophotometry"}, "[2]": {"test": "Zinc precipitation of GLP-1 molecules: 280 nm absorbance of supernatant (Example 1)", "format": "physicochemical", "conditions": "about 18 hours, theoretical absorbance 0.207"}, "[3]": {"conditions": "Zn/GLP-1 molecule molar ratio 0, about 0.1 mg/mL in 0.1M HEPES pH 7.4, 22° C"}, "[4]": {"conditions": "Zn/GLP-1 molecule molar ratio 0.3, about 0.1 mg/mL in 0.1M HEPES pH 7.4, 22° C"}, "[5]": {"conditions": "Zn/GLP-1 molecule molar ratio 0.5, about 0.1 mg/mL in 0.1M HEPES pH 7.4, 22° C"}, "[6]": {"conditions": "Zn/GLP-1 molecule molar ratio 0.7, about 0.1 mg/mL in 0.1M HEPES pH 7.4, 22° C"}, "[7]": {"conditions": "Zn/GLP-1 molecule molar ratio 1.0, about 0.1 mg/mL in 0.1M HEPES pH 7.4, 22° C"}, "[8]": {"conditions": "Zn/GLP-1 molecule molar ratio 3.0, about 0.1 mg/mL in 0.1M HEPES pH 7.4, 22° C"}}, "note": "Values joined by “and” are separate entries in the source; they are usually repeats but may differ in a detail not shown here. Equal values may be shown once. Part of at least one peptide drawing is inferred or uncertain, most often the ends."}
{"smiles": "CC[C@H](C)[C@H](NC(=O)[C@H](Cc1ccccc1)NC(=O)[C@H](CCC(=O)O)NC(=O)[C@H](CCCCN)NC(=O)[C@H](C)NC(=O)[C@H](C)NC(=O)[C@H](CCC(N)=O)NC(=O)CNC(=O)[C@H](CCC(=O)O)NC(=O)[C@H](CC(C)C)NC(=O)[C@H](Cc1ccc(O)cc1)NC(=O)[C@H](CO)NC(=O)[C@H](CO)NC(=O)[C@@H](NC(=O)[C@H](CC(=O)O)NC(=O)[C@H](CO)NC(=O)[C@@H](NC(=O)[C@H](Cc1ccccc1)NC(=O)[C@@H](NC(=O)CNC(=O)[C@H](CCC(=O)O)NC(=O)[C@H](C)NC(=O)[C@@H](N)Cc1c[nH]cn1)[C@@H](C)O)[C@@H](C)O)C(C)C)C(=O)N[C@@H](C)C(=O)N[C@@H](Cc1c[nH]c2ccccc12)C(=O)N[C@@H](CC(C)C)C(=O)N[C@H](C(=O)N[C@@H](CCCCN)C(=O)NCC(=O)N[C@@H](CCCNC(=N)N)C(N)=O)C(C)C", "note": "[GLP-1 (7-36)amide]", "values": [{"measurement": "280 nm Absorbance", "setting": "[1]; Redissolved Precipitate (5 ml) in 0.01N hydrochloric acid", "value": 1.932}, {"measurement": "Zinc Concentration in Parts per Million", "setting": "[1]; Redissolved Precipitate (5 ml)", "value": 13.3, "unit": "Parts per Million"}, {"measurement": "280 nm Absorbance", "setting": "[1]; Supernatant (5 ml), 5 mg peptide, zinc to peptide about 1 to 1, 0.1M HEPES pH 7.4, 22° C, 18 hours", "value": 0.118}, {"measurement": "Zinc Concentration in Parts per Million", "setting": "[1]; Supernatant (5 ml)", "value": 9.02, "unit": "Parts per Million"}, {"measurement": "zinc concentration of the redissolved precipitate solution", "setting": "[1]; equivalent of 13.3 parts per million", "value": 203, "unit": "µM"}, {"measurement": "GLP-1 (7-36)amide concentration of the redissolved precipitate", "setting": "[1]; from 280 nm absorbance value of 1.932", "value": "0.933 mg/ml and 283 µM"}, {"measurement": "molar ratio of zinc to GLP-1 (7-36)amide in the precipitate", "setting": "[1]; ratio to 1", "value": 0.717}, {"measurement": "precipitation from the solution", "setting": "[1]; when the zinc-containing HEPES solution was added", "value": "most of the GLP-1 (7-36)amide precipitated from the solution"}, {"measurement": "280 nm Absorbance", "setting": "[2]; [3]", "value": 0.172}, {"measurement": "280 nm Absorbance", "setting": "[2]; [4]", "value": 0.099}, {"measurement": "280 nm Absorbance", "setting": "[2]; [5]", "value": 0.057}, {"measurement": "280 nm Absorbance", "setting": "[2]; [6]", "value": 0.035}, {"measurement": "280 nm Absorbance", "setting": "[2]; [7]", "value": 0.039}, {"measurement": "280 nm Absorbance", "setting": "[2]; [8]", "value": 0.048}]}
{"smiles": "CC[C@H](C)[C@H](NC(=O)[C@H](Cc1ccccc1)NC(=O)[C@H](CCC(=O)O)NC(=O)[C@H](CCCCN)NC(=O)[C@H](C)NC(=O)[C@H](C)NC(=O)[C@H](CCC(N)=O)NC(=O)CNC(=O)[C@H](CCC(=O)O)NC(=O)[C@H](CC(C)C)NC(=O)[C@H](Cc1ccc(O)cc1)NC(=O)[C@H](CO)NC(=O)[C@H](CO)NC(=O)[C@@H](NC(=O)[C@H](CC(=O)O)NC(=O)[C@H](CO)NC(=O)[C@@H](NC(=O)[C@H](Cc1ccccc1)NC(=O)[C@@H](NC(=O)CNC(=O)[C@H](CCC(=O)O)NC(=O)CNC(=O)[C@@H](N)Cc1c[nH]cn1)[C@@H](C)O)[C@@H](C)O)C(C)C)C(=O)N[C@@H](C)C(=O)N[C@@H](Cc1c[nH]c2ccccc12)C(=O)N[C@@H](CC(C)C)C(=O)N[C@H](C(=O)N[C@@H](CCCCN)C(=O)NCC(=O)N[C@@H](CCCNC(=N)N)C(N)=O)C(C)C", "note": "[Gly⁸-GLP-1 (7-36)amide]", "values": [{"measurement": "280 nm Absorbance", "setting": "[2]; [3]", "value": 0.136}, {"measurement": "280 nm Absorbance", "setting": "[2]; [4]", "value": 0.079}, {"measurement": "280 nm Absorbance", "setting": "[2]; [5]", "value": 0.070}, {"measurement": "280 nm Absorbance", "setting": "[2]; [6]", "value": 0.058}, {"measurement": "280 nm Absorbance", "setting": "[2]; [7]", "value": 0.057}, {"measurement": "280 nm Absorbance", "setting": "[2]; [8]", "value": 0.044}]}
